Assay results from PMC9429754.
Results are given in words; binding and its absence hold for the method and conditions named. Binding seen in cells or lysates may run through a third protein. Some entries that bind do so weakly or less than the wild type.

Sequences of proteins named here, by UniProt entry; tags and fusion partners are left off.
UniProt O43791: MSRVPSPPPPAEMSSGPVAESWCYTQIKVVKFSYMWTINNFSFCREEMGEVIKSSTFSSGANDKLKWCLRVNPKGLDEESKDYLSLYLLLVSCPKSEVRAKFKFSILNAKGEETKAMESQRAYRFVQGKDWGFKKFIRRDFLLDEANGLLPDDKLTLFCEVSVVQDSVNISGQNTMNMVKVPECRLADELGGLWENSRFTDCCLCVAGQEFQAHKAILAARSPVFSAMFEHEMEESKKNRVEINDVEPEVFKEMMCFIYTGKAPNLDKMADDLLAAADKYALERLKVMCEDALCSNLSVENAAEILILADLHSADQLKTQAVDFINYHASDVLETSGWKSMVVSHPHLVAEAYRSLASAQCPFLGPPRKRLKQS

Target: Nuclear speckle-type pox virus and zinc finger protein (SPOP), Myc-tagged (UniProt O43791)
Assay: co-IP; Myc-SPOP transfected in HeLa cells, harvested after 42 h, lysed in NP40 IP buffer; whole-cell extracts incubated with primary antibodies overnight at 4 °C, magnetic beads, washed three times with lysis buffer; Western blot

binding: binds
B1: CXCL16 (protein, UniProt Q9H2A7 30-254)
chain: NEGSVTGSCYCGKRISSDSPPSVQFMNRLRKHLRAYHRCLYYTRFQLLSWSVCGGNKDPWVQELMSCLDLKECGHAYSGIVAHQKHLLPTSPPISQASEGASSDIHTPAQMLLSTLQSTQRPTLPVGSLSSDKELTRPNETTIHTAGHSLAAGPEAGENQKQPEKNAGPTARTSATVPVLCLLAIIFILTAALSYVLCKRRRGQSPQSSPDLPVHYIPVAPDSNT
